These results are taken from article PMC12040169 (PLOS Biology, 2025).

The list shows a part of the results.

The subject of this test is T1, CTL2-GFP (C. trachomatis L2/434/Bu, GFP-expressing).
T1 construct: L2/434/Bu, GFP-expressing
Also noted: species or system HeLa; Intracellular C. trachomatis growth in HeLa cells, bulk GFP fluorescence relative to DMSO. The note with it: bulk GFP, single well; 28.5 h, 10 µM; inhibitor.
As for `OCCn1c(S)nnc1-c1ccccc1` [CBK100025], the “% of control remaining” value is 103.57%.

With `CN1CCC(C(=O)N2CCN(c3ncccn3)CC2)CC1` [CBK144511], the “% of control remaining” value turned out to be 102.375%.

Consider `CC(=O)N1CCN(C(C(=O)O)c2c[nH]c3ccc(NC(=O)C(C)C)cc23)CC1` (stereo not drawn) [CBK286634], for which the “% of control remaining” value was determined as 103.013%.

For `CCC(O)Cn1nc(CCSC)nc1-c1cc(=O)n(C)c2ccccc12` (stereo not drawn) [CBK306596], the “% of control remaining” value turned out to be 140.396%.

Turning to `COc1ccc(S(=O)(=O)Nc2ccc(S(=O)(=O)Nc3nccs3)cc2)cc1C` [CBK266011], the “% of control remaining” value amounted to 181.631%.

For the compound `CC(=O)c1ccc2[nH]c(C(=O)O)c(CCN)c2c1` [CBK260944], the “% of control remaining” value was 109.899%.

Turning to `CN(C)CC(=O)Nc1cc(C(F)(F)F)ccc1Cl` [CBK307420], the “% of control remaining” value is reported as 118.557%.

In the case of `CCC(NS(=O)(=O)c1ccc(Br)cc1)C(=O)O` (stereo not drawn) [CBK264472], the “% of control remaining” value stood at 100%.

Take `CC1(C)CC(=O)c2sc(NC(=O)Cc3ccc(Cl)c(Cl)c3)nc2C1` [CBK144103]: the “% of control remaining” value stood at 100%.

`CC(C)c1ccc(C(C)NC(=O)Cn2cc(C(=O)NC3CCCC3)ccc2=O)cc1` (stereo not drawn) [CBK286121]: the “% of control remaining” value was 105.071%.

Regarding `N#Cc1ccc(CNC(=O)N2CCCC(C(=O)O)C2)cc1` (stereo not drawn) [CBK161352], the “% of control remaining” value came out at 133.882%.

Regarding `O=C(O)CC1(CC(=O)Nc2ccc(N3CCCC3=O)c(Cl)c2)CCCCC1` [CBK296664], the “% of control remaining” value turned out to be 157.178%.

Turning to `CN1C2C=C(N(CCc3ccccc3)C(=O)c3ccc(-c4ccccc4)cc3)CC1CC2` (stereo not drawn) [CBK262596C], the “% of control remaining” value was 100%.

In the case of `c1nc(Sc2nccs2)cc(N2CCCC2)n1` [CBK093748], the “% of control remaining” value turned out to be 119.244%.

As for `Cc1ccc(S(=O)(=O)NCCSCc2cccc(Cl)c2)cc1[N+](=O)[O-]` [CBK264116], the “% of control remaining” value is given as 100%.

`Cc1ccc(C2(CN3CCN(Cc4cncn4C)CC3)CC2)cc1` [CBK283308]: the “% of control remaining” value is reported as 126.542%.

As to `Cc1ccc(-n2c(SCC(=O)N3CCCCC3)nnc2-c2cc(Br)ccc2O)c(C)c1` [CBK269070], the “% of control remaining” value came out at 115.675%.

As for `COc1ccc(-c2c(O)n[nH]c2CCC2CCCC2)cc1` [CBK075126], the “% of control remaining” value turned out to be 129.32%.

As for `COc1cc(/C=C2\NC(=O)N(Cc3ccc([N+](=O)[O-])cc3)C2=O)ccc1OC(C)C(=O)O` (stereo not drawn) [CBK265348], the “% of control remaining” value was 108.017%.

Take `COCCC(=O)N1C[C@@H](c2ccccc2F)[C@@]2(CCCC(=O)N2)C1` [CBK283360]: the “% of control remaining” value is listed as 132.141%.

On to `O=C(O)c1cc(NC(=O)C2CCCO2)ccc1O` (stereo not drawn) [CBK269815], for which the “% of control remaining” value is recorded as 98.6234%.

As to `CCn1ncc(CN2CCC(O)(c3ccc(C)cc3)CC2)c1C` [CBK282956], the “% of control remaining” value worked out at 101.2%.

As for `COc1ccc2[nH]cc(CCNC(=O)c3ccc4nc[nH]c4c3)c2c1` [CBK122714], the “% of control remaining” value was 110.359%.

Consider `Cc1cc(C)n(C(=O)c2cccc(S(=O)(=O)N3CCCCCC3)c2)n1` [CBK266727], for which the “% of control remaining” value amounted to 123.534%.

Turning to `Cc1ccc2c(NC(=O)c3cc4c([nH]c3=O)CCC4)c(C)ccc2n1` [CBK281568], the “% of control remaining” value is given as 111.591%.

Turning to `O=C(C1CC1)N1CCc2cc(-c3cn4ccccc4n3)ccc21` [CBK285193], the “% of control remaining” value came out at 91.3839%.

Regarding `CC(C)(C)NC(=O)CCn1c(-c2ccncc2)cc2cccnc21` [CBK282620], the “% of control remaining” value stood at 108.941%.

With `O=C(N/N=C/c1c[nH]c2ccc(Br)cc12)c1ccncc1` [CBK262798], the “% of control remaining” value is given as 108.144%.

As to `CC(C)(C)NC(=O)Cn1c(-c2cccs2)cc2cccnc21` [CBK282455], the “% of control remaining” value was determined as 128.061%.

Turning to `COc1ccc(CNC(=O)CC[C@H]2CNC(=O)[C@H]3NCC[C@H]3N2C)cc1` [CBK289025], the “% of control remaining” value was 130.504%.

`FC(F)(F)c1nc2ccccc2nc1SCc1ccccc1` [CBK103732]: the “% of control remaining” value is 162.75%.

Consider `Clc1nc(NCCN2CCOCC2)nc(N2CCCCCC2)n1` [CBK027412], for which the “% of control remaining” value was found to be 113.601%.

For the compound `CCCCNc1nccnc1-c1ccccc1` [CBK088477], the “% of control remaining” value was 125.738%.

As to `CCOC(=O)C1CC2CCC1C[C@]21NC(=O)c2ccccc2N1` (stereo partly drawn) [CBK284441], the “% of control remaining” value worked out at 106.59%.

On to `Cc1cc(C)nc(NS(=O)(=O)c2ccc(NC(=O)N3c4ccccc4Sc4ccccc43)cc2)n1` [CBK263922], for which the “% of control remaining” value was determined as 12.1186%.

In the case of `COC(=O)c1ccsc1NS(=O)(=O)c1ccc(NC(C)=O)cc1` [CBK039063], the “% of control remaining” value was 100.261%.

Consider `CC(C)N(C)CCOc1ncccc1OCCO` [CBK039171], for which the “% of control remaining” value is on record as 100%.

In the case of `COc1ccc(C2N(Cc3ccccc3)CCN2Cc2ccccc2)c(OC)c1OC` [CBK265220], the “% of control remaining” value stood at 112.775%.

For `COc1ccc(CC(=O)N2CCCC2c2nc3ccccc3[nH]2)cc1` (stereo not drawn) [CBK283666], the “% of control remaining” value was 102.312%.

As to `O=C(Cc1csc(-c2ccc(F)cc2)n1)Nc1ccc(F)cc1` [CBK295177], the “% of control remaining” value is reported as 146.384%.

`O=C1C=C(OCc2ccccc2)CN1` [CBK020360]: the “% of control remaining” value was 144.134%.

Consider `Cc1ccc(C(=O)Nc2cccc3cccnc23)cc1Br` [CBK265189], for which the “% of control remaining” value stood at 115.996%.

In the case of `COc1ccc(C(=O)CSc2nnc3n(N)cnn23)cc1` [CBK263201], the “% of control remaining” value was 102.709%.

Regarding `FC(F)(F)c1ccnc(OCCNc2ccccc2)c1` [CBK115824], the “% of control remaining” value is 100%.

As to `COc1ccc(C2(NCc3ccc4c(c3)n(C)c(=O)n4C)CC2)cc1` [CBK282836], the “% of control remaining” value was found to be 103.16%.

As to `COc1ccc(N(C)C(=O)N[C@@H]2CC[C@@]3(c4ccc(OC)c(OC)c4)CCN(C)[C@H]3C2)cc1` [CBK045653T], the “% of control remaining” value is 110.368%.

As to `COc1ccc(C(=O)N2CCN(c3ncnc4onc(C)c34)CC2)cc1` [CBK304372], the “% of control remaining” value was 109.452%.

Take `COc1cccc(CNc2nccnc2-c2ccc(S(C)(=O)=O)cc2)c1OC` [CBK037452]: the “% of control remaining” value is recorded as 116.938%.

Consider `Cc1nn(C)c(Cl)c1S(=O)(=O)Nc1nnc(C(F)(F)F)s1` [CBK062003], for which the “% of control remaining” value was determined as 130.107%.

Take `CC1=C(C(=O)N2CCOCC2)C(c2ccc(Cl)cc2)NC(=O)N1c1ccc(C(=O)O)cc1` (stereo not drawn) [CBK296999]: the “% of control remaining” value came out at 139.092%.

Take `C[C@H]1[C@@H]2[C@@H](O)C([C@H](C)C(=O)NC3CC3)CC[C@@]2(C)CC[C@@H]1NC(=O)C1CC1` (stereo partly drawn) [CBK289442]: the “% of control remaining” value was 110.373%.
